Results are given in words; binding and its absence hold for the method and conditions named. In cells and extracts the contact can be indirect. Here binding means that the protein was enriched with, or labelled near, the bait; the list need not be complete. No binding means not detected with the bait.
Tests used:
[1] = target: GST-nesprin-1-alpha2 lacking the 18-amino-acid STAR domain (STARdel, aa1-842 bait protein) (human) (UniProt Q8NF91); assay: affinity purification with mass spectrometry; GST-tagged bait on glutathione magnetic agarose beads, incubated with RIPA extract of cultured human myotubes; beads washed, trypsin digest, nanoLC-MS/MS; beads alone as control; only the target purified
[2] = target: GST-nesprin-1-alpha2 wild type (aa1-842, SR1-5, KASH-less bait protein) (human) (UniProt Q8NF91); assay: as above

The chains behind the UniProt entries cited, without tags or fusion partners. Where a name states a change or a piece, a line headed by the entry shows the natural chain unless it says otherwise. A line that says so, or that is headed by a name, gives the form on record, which may keep a tag or linker. Residues count along the entry.
GST-nesprin-1-alpha2 wild type (aa1-842, SR1-5, KASH-less bait protein) (Q8NF91, form named): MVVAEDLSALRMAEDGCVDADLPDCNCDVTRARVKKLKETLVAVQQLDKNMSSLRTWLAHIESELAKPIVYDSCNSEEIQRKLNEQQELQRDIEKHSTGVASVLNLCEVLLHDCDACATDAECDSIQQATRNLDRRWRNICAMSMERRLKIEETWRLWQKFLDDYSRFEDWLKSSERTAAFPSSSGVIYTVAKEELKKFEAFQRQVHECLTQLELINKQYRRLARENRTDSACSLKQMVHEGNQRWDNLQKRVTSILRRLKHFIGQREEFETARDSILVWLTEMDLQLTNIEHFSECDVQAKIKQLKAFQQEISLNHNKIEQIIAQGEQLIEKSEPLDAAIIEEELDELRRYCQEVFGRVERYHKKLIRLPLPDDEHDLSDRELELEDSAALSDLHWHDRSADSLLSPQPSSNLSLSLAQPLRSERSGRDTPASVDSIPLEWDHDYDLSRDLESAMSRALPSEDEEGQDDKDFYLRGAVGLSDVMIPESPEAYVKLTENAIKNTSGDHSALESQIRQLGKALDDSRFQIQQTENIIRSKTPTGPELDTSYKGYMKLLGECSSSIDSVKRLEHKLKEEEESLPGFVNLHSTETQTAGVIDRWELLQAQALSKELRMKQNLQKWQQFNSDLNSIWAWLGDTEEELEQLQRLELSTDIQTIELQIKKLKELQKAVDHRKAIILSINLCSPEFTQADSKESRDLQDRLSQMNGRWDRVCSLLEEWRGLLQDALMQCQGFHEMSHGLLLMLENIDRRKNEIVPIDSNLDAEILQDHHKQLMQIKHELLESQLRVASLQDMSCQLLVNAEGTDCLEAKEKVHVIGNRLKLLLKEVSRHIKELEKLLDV
UniProt Q07866: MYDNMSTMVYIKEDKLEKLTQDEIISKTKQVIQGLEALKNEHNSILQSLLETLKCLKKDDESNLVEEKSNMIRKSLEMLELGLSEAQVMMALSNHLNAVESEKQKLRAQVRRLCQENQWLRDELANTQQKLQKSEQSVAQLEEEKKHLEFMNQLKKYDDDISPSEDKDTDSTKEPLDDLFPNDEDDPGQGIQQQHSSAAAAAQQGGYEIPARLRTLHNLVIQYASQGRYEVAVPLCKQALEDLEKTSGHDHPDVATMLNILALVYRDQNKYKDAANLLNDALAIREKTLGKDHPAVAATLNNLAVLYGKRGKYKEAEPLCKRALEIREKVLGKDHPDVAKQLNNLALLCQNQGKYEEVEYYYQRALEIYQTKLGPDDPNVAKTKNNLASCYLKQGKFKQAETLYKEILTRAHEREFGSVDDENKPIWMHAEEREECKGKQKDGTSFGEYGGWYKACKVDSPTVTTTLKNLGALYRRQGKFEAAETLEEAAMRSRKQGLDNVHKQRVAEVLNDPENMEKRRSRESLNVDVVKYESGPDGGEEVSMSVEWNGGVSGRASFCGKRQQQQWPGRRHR
UniProt P33176: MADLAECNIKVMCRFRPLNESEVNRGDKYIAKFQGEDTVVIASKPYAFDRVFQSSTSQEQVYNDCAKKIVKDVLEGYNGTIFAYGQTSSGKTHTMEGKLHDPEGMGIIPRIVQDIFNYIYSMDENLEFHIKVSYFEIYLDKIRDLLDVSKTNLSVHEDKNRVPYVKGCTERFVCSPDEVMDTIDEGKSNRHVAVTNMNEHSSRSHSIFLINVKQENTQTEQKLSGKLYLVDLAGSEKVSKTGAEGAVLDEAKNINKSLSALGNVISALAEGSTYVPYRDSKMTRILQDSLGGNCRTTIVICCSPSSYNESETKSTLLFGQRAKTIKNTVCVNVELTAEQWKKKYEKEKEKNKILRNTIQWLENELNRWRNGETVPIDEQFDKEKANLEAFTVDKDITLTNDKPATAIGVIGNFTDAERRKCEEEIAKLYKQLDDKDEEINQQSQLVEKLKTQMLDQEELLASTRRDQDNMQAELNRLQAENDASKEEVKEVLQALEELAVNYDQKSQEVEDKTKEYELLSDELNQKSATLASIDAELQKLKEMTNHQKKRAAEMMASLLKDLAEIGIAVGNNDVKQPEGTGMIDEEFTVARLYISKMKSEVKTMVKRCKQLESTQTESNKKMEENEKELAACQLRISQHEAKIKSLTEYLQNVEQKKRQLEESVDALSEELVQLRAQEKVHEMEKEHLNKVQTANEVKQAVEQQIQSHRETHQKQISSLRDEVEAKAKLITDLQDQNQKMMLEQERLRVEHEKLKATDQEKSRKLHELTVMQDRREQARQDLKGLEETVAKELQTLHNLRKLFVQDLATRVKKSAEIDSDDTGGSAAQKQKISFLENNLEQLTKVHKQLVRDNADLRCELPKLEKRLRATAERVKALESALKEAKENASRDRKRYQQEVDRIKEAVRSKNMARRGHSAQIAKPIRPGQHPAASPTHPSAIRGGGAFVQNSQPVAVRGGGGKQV
UniProt P02545, residues 1-646: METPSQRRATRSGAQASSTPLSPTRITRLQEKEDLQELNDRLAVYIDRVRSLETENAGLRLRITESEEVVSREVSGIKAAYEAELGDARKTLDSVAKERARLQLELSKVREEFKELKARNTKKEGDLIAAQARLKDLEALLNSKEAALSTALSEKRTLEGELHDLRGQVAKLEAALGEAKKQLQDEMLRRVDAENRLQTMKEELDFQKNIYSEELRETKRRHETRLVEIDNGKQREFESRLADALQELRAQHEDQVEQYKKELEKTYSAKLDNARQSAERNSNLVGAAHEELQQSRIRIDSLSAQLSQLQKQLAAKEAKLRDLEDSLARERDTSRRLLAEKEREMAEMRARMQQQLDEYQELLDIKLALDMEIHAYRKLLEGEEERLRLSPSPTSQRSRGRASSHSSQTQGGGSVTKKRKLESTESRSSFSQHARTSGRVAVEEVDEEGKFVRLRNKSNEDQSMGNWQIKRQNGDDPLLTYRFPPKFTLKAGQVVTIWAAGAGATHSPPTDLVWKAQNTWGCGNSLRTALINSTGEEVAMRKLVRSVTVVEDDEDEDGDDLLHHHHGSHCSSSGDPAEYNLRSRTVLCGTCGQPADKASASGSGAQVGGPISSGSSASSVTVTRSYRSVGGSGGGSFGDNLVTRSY

Substance: human kinesin light-chain (kinesin light chain 1, 72 kDa) (from UniProt Q07866 1-573)
- binding [1]: no binding
- binding [2]: binds

Substance: kinesin heavy-chain (Kinesin 1, heavy chain; KIF5B) (from UniProt P33176 1-963)
- binding [1]: no binding
- binding [2]: binds

Substance: lamin A/C (from UniProt P02545 1-646)
- binding [1]: no binding
- binding [2]: no binding

From article PMC6775114
